Values from PubChem BioAssay AID1224828 (NIAID, 2016)
Screen: 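Find genes required for NF-kappaB p65 moving into the nucleus after LPS in mouse macrophages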 (primary screen). Cells: mouse RAW264.7 G9 macrophage reporter cells (GFP-p65, Tnf promoter-mCherry). Reagent: siRNA pool against mouse genes, 100 nM. Timing: 2 days siRNA transfection, then 40 min LPS before fixation. Conditions: LPS (Salmonella minnesota R595) at 10 ng/ml. Read-out: 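Microscopy ratio of nuclear to perinuclear-ring GFP-p65 signal, scaled to the plate median; gene score is the average of two replicate robust z-scores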. Direction: p65 translocation robust z-score: higher = more nuclear NF-kappaB p65 after LPS than the plate median; nuclear/cytoplasmic p65 ratio: higher = more nuclear NF-kappaB p65. Active means: 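Active if robust z is above 3.3 (negative regulators) or below -1.56, the Tlr4 control median (positive regulators); activity score 50 or more; control wells not called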. Calls: active = hit (p65 shift raised or lowered); inactive = no clear change.
This is an unselected part of about 17,000 deposited reagents. Over the whole deposit, 762 (4.5%) got an active call. 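Active calls include both raised and lowered p65 entry, mostly lowered; wells with fewer than 50 cells lack a z-score.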 Raw values vary from plate to plate and are shown uncorrected. A number with no mark means an inactive call. Reagents against one gene are numbered here. No sequences are given here.

gene,pool no.,p65 translocation robust z-score,"nuclear/cytoplasmic p65 ratio, rep 1","nuclear/cytoplasmic p65 ratio, rep 2",low cell count flag
Gdnf (glial cell line derived neurotrophic factor),1,-0.42,1.39,1.31,enough cells to score
Rnase2a,1,,0.956,1.17,fewer than 50 cells per well; well left out of scoring
Zfp398 (zinc finger protein 398),1,0.99,1.71,1.58,enough cells to score
"Ppp1r17 (protein phosphatase 1, regulatory subunit 17)",1,-0.54,1.58,1.32,enough cells to score
Fkbp14 (FK506 binding protein 14),1,-0.28,1.57,1.57,enough cells to score
Fgf3 (fibroblast growth factor 3),1,-0.43,1.39,1.3,enough cells to score
Tmem59l (transmembrane protein 59-like),1,,1.05,1.28,fewer than 50 cells per well; well left out of scoring
"Mms22l (MMS22-like, DNA repair protein)",1,0.1,1.68,1.41,enough cells to score
N4bp2l1 (NEDD4 binding protein 2-like 1),1,0.11,1.77,1.5,enough cells to score
Klhl36 (kelch-like 36),1,-0.25,1.53,1.81,enough cells to score
Dlg1 (discs large MAGUK scaffold protein 1),1,-0.89,1.74,1.27,enough cells to score
Cdc45 (cell division cycle 45),1,-1.14,1.42,1.23,enough cells to score
Or2v2 (olfactory receptor family 2 subfamily V member 2),1,-0.43,1.53,1.38,enough cells to score
Vezf1 (vascular endothelial zinc finger 1),1,-0.72,1.62,1.2,enough cells to score
Tars3 (threonyl-tRNA synthetase 3),1,-0.81,1.32,1.37,enough cells to score
Limk1 (LIM domain kinase 1),1,-1.6 (active),1.53,1.17,enough cells to score
Vldlr (very low density lipoprotein receptor),1,0.11,1.51,1.53,enough cells to score
St6galnac4,1,0.49,1.47,1.31,enough cells to score
Angptl2 (angiopoietin-like 2),1,0.52,1.74,1.66,enough cells to score
Nobox (NOBOX oogenesis homeobox),1,0.86,1.78,1.71,enough cells to score
"Tas2r117 (taste receptor, type 2, member 117)",1,0.95,1.56,1.23,enough cells to score
Htr1a (5-hydroxytryptamine (serotonin) receptor 1A),1,-1.14,1.39,1.37,enough cells to score
Slc35a4,1,,1.23,1.17,fewer than 50 cells per well; well left out of scoring
"Rabl2 (RAB, member RAS oncogene family-like 2)",1,0.12,1.56,1.51,enough cells to score
Vapb,1,0.72,1.52,1.28,enough cells to score
Gtpbp8 (GTP-binding protein 8 (putative)),1,-0.17,1.48,1.51,enough cells to score
Zfp704 (zinc finger protein 704),1,-1.45,1.36,1.41,enough cells to score
Pramel4 (PRAME like 4),1,1.4,1.51,1.42,enough cells to score
Pramel4 (PRAME like 4),2,-1.59 (active),1.2,1.02,enough cells to score
Thrap3 (thyroid hormone receptor associated protein 3),1,1.57,1.61,1.87,enough cells to score
Rgs12 (regulator of G-protein signaling 12),1,-1.06,1.37,1.42,enough cells to score
Idh3b (isocitrate dehydrogenase 3 (NAD+) beta),1,-0.34,1.53,1.36,enough cells to score
Krt2 (keratin 2),1,-0.45,1.41,1.33,enough cells to score
Dlk1 (delta like non-canonical Notch ligand 1),1,-1,1.32,1.27,enough cells to score
Tprg1l (transformation related protein 63 regulated 1 like),1,-0.16,1.47,1.3,enough cells to score
"Tubb4a (tubulin, beta 4A class IVA)",1,-0.53,1.48,1.39,enough cells to score
Angpt4 (angiopoietin 4),1,-0.06,1.65,1.4,enough cells to score
Gm9927 (predicted gene 9927),1,1.71,1.69,1.75,enough cells to score
Fgf9 (fibroblast growth factor 9),1,0.59,1.5,1.46,enough cells to score
Wdr11 (WD repeat domain 11),1,0.71,1.62,1.7,enough cells to score
"Slitrk4 (SLIT and NTRK-like family, member 4)",1,-0.56,1.16,1.17,enough cells to score
Clpx,1,0.01,1.44,1.41,enough cells to score
Zfp628 (zinc finger protein 628),1,-1.04,1.35,1.07,enough cells to score
Dll4 (delta like canonical Notch ligand 4),1,0.42,1.56,1.41,enough cells to score
Ccnb3 (cyclin B3),1,-0.75,1.35,1.3,enough cells to score
Togaram2 (TOG array regulator of axonemal microtubules 2),1,2.79,1.5,1.69,enough cells to score
"Cnn3 (calponin 3, acidic)",1,0.5,1.63,1.91,enough cells to score
Hs6st3 (heparan sulfate 6-O-sulfotransferase 3),1,,1.17,1.12,fewer than 50 cells per well; well left out of scoring
"Sptbn1 (spectrin beta, non-erythrocytic 1)",1,1.07,1.58,1.33,enough cells to score
"Pggt1b (protein geranylgeranyltransferase type I, beta subunit)",1,1.23,1.7,1.54,enough cells to score
"Prim2 (DNA primase, p58 subunit)",1,0.35,1.55,1.45,enough cells to score
Kctd8 (potassium channel tetramerisation domain containing 8),1,2.7,1.88,1.84,enough cells to score
Adam28 (a disintegrin and metallopeptidase domain 28),1,-0.39,1.52,1.6,enough cells to score
Eif4ebp1,1,-1.57 (active),1.26,1.16,enough cells to score
1810065E05Rik (RIKEN cDNA 1810065E05 gene),1,,1.28,1.58,fewer than 50 cells per well; well left out of scoring
Xkr5 (XK related 5),1,-1.63 (active),1.13,1.27,enough cells to score
Lyve1 (lymphatic vessel endothelial hyaluronan receptor 1),1,0.28,1.39,1.33,enough cells to score
Gh (growth hormone),1,-0.17,1.48,1.52,enough cells to score
Ttc1 (tetratricopeptide repeat domain 1),1,0.06,1.49,1.23,enough cells to score

An excerpt from above, showing only “nuclear/cytoplasmic p65 ratio, rep 2”.
Tmem59l (transmembrane protein 59-like) = 1.28
Mms22l (MMS22-like, DNA repair protein) = 1.41
N4bp2l1 (NEDD4 binding protein 2-like 1) = 1.5
Klhl36 (kelch-like 36) = 1.81
